Data source: PubChem BioAssay AID1508597 (Cure First, 2020)
Test: 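Genes whose silencing sensitises or protects ovarian cancer cells against rucaparib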 (primary screen). Cell system: human ovarian carcinoma lines grown from tumours: OCI-P5x (papillary serous) and OCI-C5x (clear cell). Knock-down reagent: siRNA pool against human genes, 1.25 pmol siRNA per well. Timing: 72 h or 96 h, depending on the cell culture. Conditions: rucaparib 20 µM (about IC30) or vehicle, present until read-out. Measurement: 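ATP luminescence measured at 72 or 96 h according to the culture, then normalised and expressed as percent viability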. Reading the numbers: viability, normalised: higher = more viable cells remaining. Active means: 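a well counts as a hit if its normalised viability is under 80 percent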. Meaning of the calls: active = viability under 80%; inactive = viability 80% or more.
The whole screen tested about 2,100 reagents; shown is a part drawn at random. 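Calls flag viability under 80% in either arm, not effects specific to rucaparib; the reference for percent is not stated.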 Not stated in the record: the 100% reference.

EME2 (essential meiotic structure-specific endonuclease subunit 2), rucaparib or vehicle Rucaparib, cell line OCI-C5x (clear cell), technical replicate 1 → viability, normalised (%) = 63.9; Call = active
EME2 (essential meiotic structure-specific endonuclease subunit 2), rucaparib or vehicle Rucaparib, cell line OCI-C5x (clear cell), technical replicate 2 → viability, normalised (%) = 71.8; Call = active
EME2 (essential meiotic structure-specific endonuclease subunit 2), rucaparib or vehicle Rucaparib, cell line OCI-C5x (clear cell), technical replicate 3 → viability, normalised (%) = 76.6; Call = active
EME2 (essential meiotic structure-specific endonuclease subunit 2), rucaparib or vehicle Rucaparib, cell line OCI-P5x (serous), technical replicate 1 → viability, normalised (%) = 116; Call = inactive
EME2 (essential meiotic structure-specific endonuclease subunit 2), rucaparib or vehicle Rucaparib, cell line OCI-P5x (serous), technical replicate 2 → viability, normalised (%) = 107; Call = inactive
EME2 (essential meiotic structure-specific endonuclease subunit 2), rucaparib or vehicle Rucaparib, cell line OCI-P5x (serous), technical replicate 3 → viability, normalised (%) = 113; Call = inactive
EME2 (essential meiotic structure-specific endonuclease subunit 2), rucaparib or vehicle Vehicle, cell line OCI-C5x (clear cell), technical replicate 1 → viability, normalised (%) = 55.1; Call = active
EME2 (essential meiotic structure-specific endonuclease subunit 2), rucaparib or vehicle Vehicle, cell line OCI-C5x (clear cell), technical replicate 2 → viability, normalised (%) = 54.9; Call = active
EME2 (essential meiotic structure-specific endonuclease subunit 2), rucaparib or vehicle Vehicle, cell line OCI-C5x (clear cell), technical replicate 3 → viability, normalised (%) = 62.9; Call = active
EME2 (essential meiotic structure-specific endonuclease subunit 2), rucaparib or vehicle Vehicle, cell line OCI-P5x (serous), technical replicate 1 → viability, normalised (%) = 99.1; Call = inactive
EME2 (essential meiotic structure-specific endonuclease subunit 2), rucaparib or vehicle Vehicle, cell line OCI-P5x (serous), technical replicate 2 → viability, normalised (%) = 103; Call = inactive
EME2 (essential meiotic structure-specific endonuclease subunit 2), rucaparib or vehicle Vehicle, cell line OCI-P5x (serous), technical replicate 3 → viability, normalised (%) = 104; Call = inactive
SRPK1 (SRSF protein kinase 1), rucaparib or vehicle Rucaparib, cell line OCI-C5x (clear cell), technical replicate 1 → viability, normalised (%) = 73.9; Call = active
SRPK1 (SRSF protein kinase 1), rucaparib or vehicle Rucaparib, cell line OCI-C5x (clear cell), technical replicate 2 → viability, normalised (%) = 75.1; Call = active
SRPK1 (SRSF protein kinase 1), rucaparib or vehicle Rucaparib, cell line OCI-C5x (clear cell), technical replicate 3 → viability, normalised (%) = 30.6; Call = active
SRPK1 (SRSF protein kinase 1), rucaparib or vehicle Rucaparib, cell line OCI-P5x (serous), technical replicate 1 → viability, normalised (%) = 111; Call = inactive
SRPK1 (SRSF protein kinase 1), rucaparib or vehicle Rucaparib, cell line OCI-P5x (serous), technical replicate 2 → viability, normalised (%) = 90.2; Call = inactive
SRPK1 (SRSF protein kinase 1), rucaparib or vehicle Rucaparib, cell line OCI-P5x (serous), technical replicate 3 → viability, normalised (%) = 104; Call = inactive
SRPK1 (SRSF protein kinase 1), rucaparib or vehicle Vehicle, cell line OCI-C5x (clear cell), technical replicate 1 → viability, normalised (%) = 89.2; Call = inactive
SRPK1 (SRSF protein kinase 1), rucaparib or vehicle Vehicle, cell line OCI-C5x (clear cell), technical replicate 2 → viability, normalised (%) = 66.4; Call = active
SRPK1 (SRSF protein kinase 1), rucaparib or vehicle Vehicle, cell line OCI-C5x (clear cell), technical replicate 3 → viability, normalised (%) = 53.5; Call = active
SRPK1 (SRSF protein kinase 1), rucaparib or vehicle Vehicle, cell line OCI-P5x (serous), technical replicate 1 → viability, normalised (%) = 92.1; Call = inactive
SRPK1 (SRSF protein kinase 1), rucaparib or vehicle Vehicle, cell line OCI-P5x (serous), technical replicate 2 → viability, normalised (%) = 73.9; Call = active
SRPK1 (SRSF protein kinase 1), rucaparib or vehicle Vehicle, cell line OCI-P5x (serous), technical replicate 3 → viability, normalised (%) = 82.5; Call = inactive

A few values from above:
Under “viability, normalised (%)”, EME2 (essential meiotic structure-specific endonuclease subunit 2), rucaparib or vehicle Vehicle, cell line OCI-P5x (serous), technical replicate 2 shows 103
EME2 (essential meiotic structure-specific endonuclease subunit 2), rucaparib or vehicle Rucaparib, cell line OCI-C5x (clear cell), technical replicate 2, Call = active
For “Call”, SRPK1 (SRSF protein kinase 1), rucaparib or vehicle Rucaparib, cell line OCI-C5x (clear cell), technical replicate 3 is entered as active
SRPK1 (SRSF protein kinase 1), rucaparib or vehicle Vehicle, cell line OCI-P5x (serous), technical replicate 1, Call → inactive

The results go on:
DDA1 (DET1 and DDB1 associated 1), rucaparib or vehicle Rucaparib, cell line OCI-C5x (clear cell), technical replicate 1 → viability, normalised (%) = 62.4; Call = active
DDA1 (DET1 and DDB1 associated 1), rucaparib or vehicle Rucaparib, cell line OCI-C5x (clear cell), technical replicate 2 → viability, normalised (%) = 66.3; Call = active
DDA1 (DET1 and DDB1 associated 1), rucaparib or vehicle Rucaparib, cell line OCI-C5x (clear cell), technical replicate 3 → viability, normalised (%) = 63.1; Call = active
DDA1 (DET1 and DDB1 associated 1), rucaparib or vehicle Rucaparib, cell line OCI-P5x (serous), technical replicate 1 → viability, normalised (%) = 76.6; Call = active
DDA1 (DET1 and DDB1 associated 1), rucaparib or vehicle Rucaparib, cell line OCI-P5x (serous), technical replicate 2 → viability, normalised (%) = 53.9; Call = active
DDA1 (DET1 and DDB1 associated 1), rucaparib or vehicle Rucaparib, cell line OCI-P5x (serous), technical replicate 3 → viability, normalised (%) = 66.7; Call = active
DDA1 (DET1 and DDB1 associated 1), rucaparib or vehicle Vehicle, cell line OCI-C5x (clear cell), technical replicate 1 → viability, normalised (%) = 65.5; Call = active
DDA1 (DET1 and DDB1 associated 1), rucaparib or vehicle Vehicle, cell line OCI-C5x (clear cell), technical replicate 2 → viability, normalised (%) = 56.5; Call = active
DDA1 (DET1 and DDB1 associated 1), rucaparib or vehicle Vehicle, cell line OCI-C5x (clear cell), technical replicate 3 → viability, normalised (%) = 44.1; Call = active
DDA1 (DET1 and DDB1 associated 1), rucaparib or vehicle Vehicle, cell line OCI-P5x (serous), technical replicate 1 → viability, normalised (%) = 59.6; Call = active
DDA1 (DET1 and DDB1 associated 1), rucaparib or vehicle Vehicle, cell line OCI-P5x (serous), technical replicate 2 → viability, normalised (%) = 65.1; Call = active
DDA1 (DET1 and DDB1 associated 1), rucaparib or vehicle Vehicle, cell line OCI-P5x (serous), technical replicate 3 → viability, normalised (%) = 66.8; Call = active
